According to article PMC13223278:
Results are given in words; binding and its absence hold for the method and conditions named. Binding seen in cells or lysates may run through a third protein. Some results given as binding are weak or reduced against the parent protein; the word gives no strength.

By UniProt entry, the sequences of proteins in these tests, tags left out. Residues count along the entry.
UniProt P40189, residues 23-918: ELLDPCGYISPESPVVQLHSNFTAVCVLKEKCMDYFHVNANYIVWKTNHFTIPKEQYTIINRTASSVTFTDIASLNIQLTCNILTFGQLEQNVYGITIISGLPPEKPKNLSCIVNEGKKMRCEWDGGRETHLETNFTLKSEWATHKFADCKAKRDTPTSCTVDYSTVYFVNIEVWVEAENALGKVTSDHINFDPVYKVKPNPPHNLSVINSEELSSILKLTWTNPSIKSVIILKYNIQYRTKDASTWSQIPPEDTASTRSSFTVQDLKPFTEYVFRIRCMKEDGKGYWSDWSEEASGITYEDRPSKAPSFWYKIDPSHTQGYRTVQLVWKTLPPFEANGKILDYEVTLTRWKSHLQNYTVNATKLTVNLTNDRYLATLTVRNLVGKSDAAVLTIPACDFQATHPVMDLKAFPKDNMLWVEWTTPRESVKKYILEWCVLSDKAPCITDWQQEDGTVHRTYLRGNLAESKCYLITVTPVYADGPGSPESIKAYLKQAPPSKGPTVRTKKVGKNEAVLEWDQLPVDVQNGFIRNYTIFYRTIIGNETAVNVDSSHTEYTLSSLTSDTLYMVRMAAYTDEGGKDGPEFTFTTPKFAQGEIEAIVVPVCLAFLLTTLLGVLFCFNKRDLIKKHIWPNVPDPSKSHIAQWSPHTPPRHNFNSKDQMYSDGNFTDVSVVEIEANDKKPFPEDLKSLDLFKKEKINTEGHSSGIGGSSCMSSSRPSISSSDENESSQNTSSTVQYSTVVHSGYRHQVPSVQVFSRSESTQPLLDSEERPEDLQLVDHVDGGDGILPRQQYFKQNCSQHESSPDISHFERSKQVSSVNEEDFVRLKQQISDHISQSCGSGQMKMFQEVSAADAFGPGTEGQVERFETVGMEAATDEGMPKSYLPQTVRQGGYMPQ
UniProt Q08334, residues 20-325: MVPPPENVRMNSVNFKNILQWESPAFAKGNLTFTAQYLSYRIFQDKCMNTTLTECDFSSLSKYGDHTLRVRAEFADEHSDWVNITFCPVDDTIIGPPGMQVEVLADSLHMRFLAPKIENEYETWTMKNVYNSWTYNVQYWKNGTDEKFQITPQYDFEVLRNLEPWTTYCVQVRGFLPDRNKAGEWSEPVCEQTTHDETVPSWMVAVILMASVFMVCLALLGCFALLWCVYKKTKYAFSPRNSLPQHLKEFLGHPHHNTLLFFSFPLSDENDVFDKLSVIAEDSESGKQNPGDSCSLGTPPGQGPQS

Legend:
[1] = biological target: glycoprotein 130 (human (endogenous in OKF6/TERT-2)) (UniProt P40189); experiment: proximity ligation; OKF6/TERT-2 cells on fibronectin-treated coverslips, fixed with 2% paraformaldehyde; two of the antibodies (goat anti-IL22RA, mouse anti-IL10RB, rabbit anti-gp130, 5 ug/ml each) in combination overnight at 4 °C; Duolink In Situ Red; confocal microscopy, average number of complexes per cell
[2] = biological target: glycoprotein 130 (human (endogenous in OKF6/TERT-2)) (UniProt P40189); experiment: co-IP; OKF6/TERT-2 cells treated without or with 50 ng/ml human IL-22 for 3 h, cross-linked with 0.1 mM DSP for 30 min, lysed; 400 ug protein with 15 ug IL22RA1, IL10RB or gp130 antibody overnight at 4 °C; Protein A/G magnetic beads; SDS-PAGE

binding [1]: binds | binding [2]: binds
Substance: interleukin-10 receptor subunit beta (from UniProt Q08334 20-325)
